The supplement of paper PMC10849652
The other results are listed elsewhere or left out.

Protein sequences, listed by entry. Tags and fused reporters are not part of them. Lines headed by an entry give the natural chain unless they say otherwise; changes in a name come on top.
UniProt Q6PGN9: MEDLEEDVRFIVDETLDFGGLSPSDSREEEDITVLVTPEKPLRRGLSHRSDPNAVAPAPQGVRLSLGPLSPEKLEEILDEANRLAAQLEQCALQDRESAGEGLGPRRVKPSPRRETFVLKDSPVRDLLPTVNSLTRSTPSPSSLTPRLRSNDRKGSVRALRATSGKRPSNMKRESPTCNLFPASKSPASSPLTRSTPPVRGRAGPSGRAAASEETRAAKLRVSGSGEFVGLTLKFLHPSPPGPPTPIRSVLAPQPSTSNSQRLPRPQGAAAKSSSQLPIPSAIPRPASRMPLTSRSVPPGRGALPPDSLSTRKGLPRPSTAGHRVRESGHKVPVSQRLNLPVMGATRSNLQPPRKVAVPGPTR
UniProt Q9ULZ3, whole entry, looked up: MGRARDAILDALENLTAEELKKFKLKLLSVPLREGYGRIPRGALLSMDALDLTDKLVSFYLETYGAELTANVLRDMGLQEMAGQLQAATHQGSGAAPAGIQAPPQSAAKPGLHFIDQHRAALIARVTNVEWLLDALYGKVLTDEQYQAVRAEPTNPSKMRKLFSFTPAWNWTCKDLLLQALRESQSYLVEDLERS
UniProt P07602: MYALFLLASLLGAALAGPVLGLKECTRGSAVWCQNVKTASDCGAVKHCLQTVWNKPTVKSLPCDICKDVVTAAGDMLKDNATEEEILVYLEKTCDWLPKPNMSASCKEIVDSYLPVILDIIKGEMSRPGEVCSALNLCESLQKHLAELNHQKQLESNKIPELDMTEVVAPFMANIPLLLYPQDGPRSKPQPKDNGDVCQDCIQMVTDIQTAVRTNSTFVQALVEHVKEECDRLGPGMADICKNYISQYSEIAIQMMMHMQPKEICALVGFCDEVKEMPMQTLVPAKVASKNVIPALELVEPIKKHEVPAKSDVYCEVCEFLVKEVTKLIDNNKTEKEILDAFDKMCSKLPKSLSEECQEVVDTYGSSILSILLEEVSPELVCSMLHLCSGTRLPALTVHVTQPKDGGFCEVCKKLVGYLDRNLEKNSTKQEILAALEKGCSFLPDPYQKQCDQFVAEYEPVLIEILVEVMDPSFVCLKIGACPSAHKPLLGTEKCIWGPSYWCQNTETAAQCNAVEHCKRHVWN
UniProt Q13308: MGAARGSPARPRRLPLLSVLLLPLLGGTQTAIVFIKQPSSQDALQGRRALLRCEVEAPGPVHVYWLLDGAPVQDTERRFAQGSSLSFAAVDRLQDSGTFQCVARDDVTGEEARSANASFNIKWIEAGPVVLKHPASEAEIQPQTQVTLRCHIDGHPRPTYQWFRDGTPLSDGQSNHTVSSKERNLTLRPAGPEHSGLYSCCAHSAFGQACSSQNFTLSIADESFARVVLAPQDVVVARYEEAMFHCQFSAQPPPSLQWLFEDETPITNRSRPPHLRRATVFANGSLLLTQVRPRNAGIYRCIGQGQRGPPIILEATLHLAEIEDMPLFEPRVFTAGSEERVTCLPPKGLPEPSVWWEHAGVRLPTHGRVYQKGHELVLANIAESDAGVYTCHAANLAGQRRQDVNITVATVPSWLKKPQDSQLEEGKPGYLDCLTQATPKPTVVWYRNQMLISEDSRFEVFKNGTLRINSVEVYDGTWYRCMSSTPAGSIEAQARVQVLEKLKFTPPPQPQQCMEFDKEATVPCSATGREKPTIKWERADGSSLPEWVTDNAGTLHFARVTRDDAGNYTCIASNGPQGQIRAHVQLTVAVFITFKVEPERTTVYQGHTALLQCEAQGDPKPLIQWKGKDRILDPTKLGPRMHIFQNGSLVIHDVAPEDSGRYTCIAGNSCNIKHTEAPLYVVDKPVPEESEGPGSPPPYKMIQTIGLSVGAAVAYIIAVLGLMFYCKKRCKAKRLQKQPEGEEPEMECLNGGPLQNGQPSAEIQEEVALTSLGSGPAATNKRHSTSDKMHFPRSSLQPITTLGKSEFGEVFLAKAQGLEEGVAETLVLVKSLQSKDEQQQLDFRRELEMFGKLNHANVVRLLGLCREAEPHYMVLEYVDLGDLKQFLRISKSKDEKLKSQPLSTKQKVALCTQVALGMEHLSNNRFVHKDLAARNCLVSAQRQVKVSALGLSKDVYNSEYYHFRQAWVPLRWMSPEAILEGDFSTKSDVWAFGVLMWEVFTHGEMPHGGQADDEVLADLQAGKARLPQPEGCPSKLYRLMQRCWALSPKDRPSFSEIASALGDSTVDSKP
UniProt Q15274: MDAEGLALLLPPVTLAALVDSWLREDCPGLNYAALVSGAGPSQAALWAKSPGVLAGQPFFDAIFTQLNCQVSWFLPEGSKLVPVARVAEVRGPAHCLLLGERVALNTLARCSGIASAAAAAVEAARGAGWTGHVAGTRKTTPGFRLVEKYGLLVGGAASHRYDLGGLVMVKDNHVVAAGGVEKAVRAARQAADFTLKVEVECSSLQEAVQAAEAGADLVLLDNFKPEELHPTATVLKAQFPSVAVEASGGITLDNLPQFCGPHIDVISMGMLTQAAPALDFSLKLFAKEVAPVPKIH
UniProt Q96PZ0: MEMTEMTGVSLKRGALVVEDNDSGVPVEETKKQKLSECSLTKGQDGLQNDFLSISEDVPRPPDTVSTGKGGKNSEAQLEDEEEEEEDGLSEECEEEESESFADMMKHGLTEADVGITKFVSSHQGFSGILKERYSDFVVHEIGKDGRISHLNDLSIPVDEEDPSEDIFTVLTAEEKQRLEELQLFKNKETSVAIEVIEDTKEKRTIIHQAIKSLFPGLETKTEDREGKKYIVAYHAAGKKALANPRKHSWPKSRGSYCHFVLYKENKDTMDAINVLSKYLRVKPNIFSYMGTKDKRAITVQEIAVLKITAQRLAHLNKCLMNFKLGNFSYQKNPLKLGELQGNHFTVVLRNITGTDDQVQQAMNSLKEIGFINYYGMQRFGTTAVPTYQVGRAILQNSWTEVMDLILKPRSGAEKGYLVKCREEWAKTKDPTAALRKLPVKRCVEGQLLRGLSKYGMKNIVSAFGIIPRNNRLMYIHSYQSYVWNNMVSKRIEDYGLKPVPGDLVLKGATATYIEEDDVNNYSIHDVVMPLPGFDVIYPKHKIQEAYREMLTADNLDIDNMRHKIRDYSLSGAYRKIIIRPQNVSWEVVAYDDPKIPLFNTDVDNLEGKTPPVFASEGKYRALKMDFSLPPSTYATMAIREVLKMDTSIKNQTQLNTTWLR
UniProt P49720: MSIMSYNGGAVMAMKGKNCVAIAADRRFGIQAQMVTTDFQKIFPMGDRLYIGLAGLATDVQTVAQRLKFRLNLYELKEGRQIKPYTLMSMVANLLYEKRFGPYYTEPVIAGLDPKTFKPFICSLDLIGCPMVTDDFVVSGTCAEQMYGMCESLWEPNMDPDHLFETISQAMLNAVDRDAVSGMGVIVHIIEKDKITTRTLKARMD
UniProt Q96BW5: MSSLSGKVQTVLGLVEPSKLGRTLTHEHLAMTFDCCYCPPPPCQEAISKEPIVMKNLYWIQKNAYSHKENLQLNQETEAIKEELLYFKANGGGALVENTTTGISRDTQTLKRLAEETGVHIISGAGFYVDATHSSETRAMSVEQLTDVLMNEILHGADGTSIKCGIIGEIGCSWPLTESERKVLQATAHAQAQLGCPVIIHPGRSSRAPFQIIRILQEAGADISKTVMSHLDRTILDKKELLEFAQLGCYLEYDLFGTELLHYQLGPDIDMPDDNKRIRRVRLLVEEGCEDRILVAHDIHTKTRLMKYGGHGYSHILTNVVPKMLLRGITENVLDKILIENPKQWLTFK
UniProt Q3MIT2: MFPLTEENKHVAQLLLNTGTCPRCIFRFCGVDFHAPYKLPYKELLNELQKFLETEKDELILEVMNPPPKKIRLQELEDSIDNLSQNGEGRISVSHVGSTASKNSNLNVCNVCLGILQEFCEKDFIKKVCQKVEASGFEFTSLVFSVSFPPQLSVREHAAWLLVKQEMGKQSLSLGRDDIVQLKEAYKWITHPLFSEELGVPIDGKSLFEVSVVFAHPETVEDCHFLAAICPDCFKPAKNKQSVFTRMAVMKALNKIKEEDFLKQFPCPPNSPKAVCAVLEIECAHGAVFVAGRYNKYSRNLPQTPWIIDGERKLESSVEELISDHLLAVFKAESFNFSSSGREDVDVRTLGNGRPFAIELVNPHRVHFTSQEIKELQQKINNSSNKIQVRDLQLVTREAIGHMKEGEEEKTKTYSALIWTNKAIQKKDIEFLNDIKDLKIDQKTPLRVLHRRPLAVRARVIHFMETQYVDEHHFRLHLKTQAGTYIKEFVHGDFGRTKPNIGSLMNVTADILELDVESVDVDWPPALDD
UniProt Q9H939: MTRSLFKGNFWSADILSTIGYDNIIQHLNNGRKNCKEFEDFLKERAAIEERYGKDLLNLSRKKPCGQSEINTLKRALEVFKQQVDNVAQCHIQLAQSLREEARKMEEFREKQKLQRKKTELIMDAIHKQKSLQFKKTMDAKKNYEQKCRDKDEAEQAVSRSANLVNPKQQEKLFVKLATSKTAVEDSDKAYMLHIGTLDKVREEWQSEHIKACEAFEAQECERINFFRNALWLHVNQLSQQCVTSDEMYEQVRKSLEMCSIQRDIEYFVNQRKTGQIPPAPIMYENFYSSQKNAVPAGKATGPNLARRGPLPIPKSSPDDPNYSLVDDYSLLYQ
UniProt P20618: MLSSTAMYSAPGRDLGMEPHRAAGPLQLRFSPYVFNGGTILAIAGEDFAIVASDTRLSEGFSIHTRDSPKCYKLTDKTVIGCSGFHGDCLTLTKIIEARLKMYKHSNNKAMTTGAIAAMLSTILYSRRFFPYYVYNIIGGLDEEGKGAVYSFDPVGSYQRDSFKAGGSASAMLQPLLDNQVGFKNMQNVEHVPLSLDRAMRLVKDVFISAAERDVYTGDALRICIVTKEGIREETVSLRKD
UniProt Q9BRP8: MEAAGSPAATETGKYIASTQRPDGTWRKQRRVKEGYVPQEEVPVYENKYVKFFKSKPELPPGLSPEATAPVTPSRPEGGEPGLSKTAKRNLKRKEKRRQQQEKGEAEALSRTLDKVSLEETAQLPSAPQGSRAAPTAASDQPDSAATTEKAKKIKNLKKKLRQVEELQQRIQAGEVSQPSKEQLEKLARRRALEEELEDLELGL
UniProt Q8TAA3: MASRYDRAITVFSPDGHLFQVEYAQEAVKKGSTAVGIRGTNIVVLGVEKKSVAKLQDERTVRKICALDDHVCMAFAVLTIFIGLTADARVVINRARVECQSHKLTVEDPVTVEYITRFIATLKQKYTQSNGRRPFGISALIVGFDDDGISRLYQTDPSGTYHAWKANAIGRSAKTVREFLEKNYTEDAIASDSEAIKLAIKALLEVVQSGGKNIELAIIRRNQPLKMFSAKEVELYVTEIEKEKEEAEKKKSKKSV
UniProt P08575: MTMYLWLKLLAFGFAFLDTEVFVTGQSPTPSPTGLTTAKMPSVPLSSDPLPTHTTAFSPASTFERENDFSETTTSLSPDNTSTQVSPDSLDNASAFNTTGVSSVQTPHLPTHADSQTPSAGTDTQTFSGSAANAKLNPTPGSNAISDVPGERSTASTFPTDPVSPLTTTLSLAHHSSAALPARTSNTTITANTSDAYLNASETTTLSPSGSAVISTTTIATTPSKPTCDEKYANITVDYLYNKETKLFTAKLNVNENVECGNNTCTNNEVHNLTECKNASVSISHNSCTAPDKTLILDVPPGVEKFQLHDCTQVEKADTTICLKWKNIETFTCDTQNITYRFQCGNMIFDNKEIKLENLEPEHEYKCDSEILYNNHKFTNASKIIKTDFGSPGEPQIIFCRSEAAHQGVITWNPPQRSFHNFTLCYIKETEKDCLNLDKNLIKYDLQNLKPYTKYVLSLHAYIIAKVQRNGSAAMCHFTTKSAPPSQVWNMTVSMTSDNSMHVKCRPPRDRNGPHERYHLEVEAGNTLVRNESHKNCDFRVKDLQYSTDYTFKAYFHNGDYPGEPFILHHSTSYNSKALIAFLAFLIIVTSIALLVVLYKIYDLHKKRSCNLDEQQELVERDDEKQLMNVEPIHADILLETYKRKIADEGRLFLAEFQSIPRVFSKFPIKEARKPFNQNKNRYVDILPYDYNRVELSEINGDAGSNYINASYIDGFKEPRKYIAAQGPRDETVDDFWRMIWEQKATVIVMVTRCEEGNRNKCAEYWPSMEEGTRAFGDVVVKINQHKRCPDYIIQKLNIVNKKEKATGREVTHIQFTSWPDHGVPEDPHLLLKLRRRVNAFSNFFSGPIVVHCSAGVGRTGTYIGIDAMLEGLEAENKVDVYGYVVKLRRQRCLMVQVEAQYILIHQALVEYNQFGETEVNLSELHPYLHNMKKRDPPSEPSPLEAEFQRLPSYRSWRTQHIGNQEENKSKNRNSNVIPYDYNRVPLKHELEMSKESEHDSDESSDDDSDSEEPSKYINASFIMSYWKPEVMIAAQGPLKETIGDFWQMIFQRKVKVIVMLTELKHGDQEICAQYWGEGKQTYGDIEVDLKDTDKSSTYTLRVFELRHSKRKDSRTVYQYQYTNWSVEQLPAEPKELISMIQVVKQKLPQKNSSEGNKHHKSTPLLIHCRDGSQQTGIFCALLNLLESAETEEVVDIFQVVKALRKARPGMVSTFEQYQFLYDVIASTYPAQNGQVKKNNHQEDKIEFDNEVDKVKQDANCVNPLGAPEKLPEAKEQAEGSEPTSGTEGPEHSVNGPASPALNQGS

How the values were obtained:
Test in all cases: log2 fold change, soluble protein after heating vs DMSO (PISA); higher = thermal stabilisation; K562 cells, 10 uM, 30 min; active = over 0.2 and 3.5 SD of the protein, either way, in both replicates (recomputed)
[1] = compound: CC1=C(C=C(C=C1)NC(=O)C2=CC(=CC=C2)C(C)(C)C#N)NC3=CC4=C(C=C3)N=CN(C4=O)C
Summary of the method: (§1)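 K562 cells at 2×10^6 cells/mL were treated with 10 μM compound for 30 min. Aliquots were heated for 3 min across 48°C-58°C, pooled, and extracted in PBS with 0.5% NP-40 at 4°C; soluble protein was the supernatant after 21,000xg for 90 min. Soluble protein was quantified by TMTpro 16plex LC-MS/MS with channel sums equalised, and reported as log2 fold change in thermal stability against DMSO controls, with values from duplicates.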

[2] = compound: CC1=C(C=C(C=C1)NC(=O)C2=CC(=CC=C2)N(C)C)NC(=O)C3=CC=C(C=C3)O
Summary of the method: as §1

[3] = compound: CC1=CC=C(C=C1)SC2=C3C=C(SC3=CN=C2)C(=O)N
Summary of the method: as §1

[4] = compound: CC1=NC(=CC=C1)C2=C(N=C(N2)C(C)(C)C)C3=CC4=NC=CN=C4C=C3
Summary of the method: as §1

Nexturastat A = compound: CCCCN(Cc1ccc(C(=O)NO)cc1)C(=O)Nc1ccccc1 [Nexturastat A]
Summary of the method: as §1

vemurafenib = compound: CCCS(=O)(=O)Nc1ccc(F)c(C(=O)c2c[nH]c3ncc(-c4ccc(Cl)cc4)cc23)c1F [vemurafenib]
Summary of the method: as §1

[5] = compound: CCCS(=O)(=O)Nc1ccc(F)c(C(=O)c2c[nH]c3ncc(Cl)cc23)c1F
Summary of the method: as §1

[6] = compound: CCCc1cc(C)[nH]c(=O)c1CNC(=O)c1cc(-c2ccnc(N3CCN(C)CC3)c2)cc2c1cnn2C(C)C
Summary of the method: as §1

givinostat = compound: CCN(CC)Cc1ccc2cc(COC(=O)Nc3ccc(C(=O)NO)cc3)ccc2c1 [givinostat]
Summary of the method: as §1

barasertib = compound: CCN(CCCOc1ccc2c(Nc3cc(CC(=O)Nc4cccc(F)c4)[nH]n3)ncnc2c1)CCOP(=O)(O)O [barasertib]
Summary of the method: as §1

[7] = compound: CC[C@@H]1C(=O)N(C)c2cnc(Nc3ccc(C(=O)NC4CCN(C)CC4)cc3OC)nc2N1C1CCCC1
Summary of the method: as §1

volasertib = compound: CC[C@@H]1C(=O)N(C)c2cnc(Nc3ccc(C(=O)N[C@H]4CC[C@H](N5CCN(CC6CC6)CC5)CC4)cc3OC)nc2N1C(C)C [volasertib]
Summary of the method: as §1

[8] = compound: CC[C@H](C)N1C=C(C2=C(C=C(C=C21)C3=CN=C(C=C3)N4CCNCC4)C(=O)NCC5=C(C=C(NC5=O)C)C)C
Summary of the method: as §1

epoxomicin = compound: CC[C@H](C)[C@@H](C(=O)N[C@@H]([C@@H](C)O)C(=O)N[C@@H](CC(C)C)C(=O)[C@]1(CO1)C)NC(=O)[C@H]([C@@H](C)CC)N(C)C(=O)C [epoxomicin]
Summary of the method: as §1

[9] = compound: CCn1c(C(=O)N(C2CC2)C2CC2)cc2c3c(ncn3C)c(Nc3cc(C)n(C)n3)nc21
Summary of the method: as §1

[10] = compound: CCn1cc(-c2ccnc3[nH]c(-c4cccc(CN(C)C)c4)cc23)c(-c2ccc(NC(=O)N(C)C)cc2)n1
Summary of the method: as §1

[11] = compound: CN(C)CC(=O)Nc1ccc2[nH]c(=O)c3ccccc3c2c1
Summary of the method: as §1

rosiglitazone = compound: CN(CCOC1=CC=C(C=C1)C[C@H]2C(=O)NC(=O)S2)C3=CC=CC=N3 (racemic) [rosiglitazone]
Summary of the method: as §1

[12] = compound: CN1C2=C(C3=C1C(=O)N(N=C3)CC4=CC(=CC=C4)N)SC(=C2)S(=O)C
Summary of the method: as §1

[13] = compound: CN1CCC(CNc2ccc3ncc(-c4cccc(OC(F)(F)F)c4)n3n2)CC1
Summary of the method: as §1

Measured: log2 fold change

PSRC1 (UniProt Q6PGN9)
inactive: [1] 0.016 | [2] 0.002 | [3] -0.032 | [4] -0.12 | Nexturastat A 0.086 | vemurafenib 0.012 | [5] -0.085 | [6] 0.068 | givinostat 0.091 | barasertib -0.065 | [7] 0.139 | volasertib 0.102 | [8] -0.018 | epoxomicin 0.039 | [9] 0.024 | [10] 0.031 | [11] -0.012 | rosiglitazone -0.006 | [12] 0.002 | [13] -0.011

PYCARD (UniProt Q9ULZ3)
inactive: [1] -0.006 | [2] 0.069 | [3] 0.017 | [4] 0.09 | Nexturastat A -0.096 | vemurafenib 0.087 | [5] 0.036 | [6] -0.07 | givinostat -0.041 | barasertib 0.063 | [7] -0.014 | volasertib -0.081 | [8] -0.008 | epoxomicin 0.033 | [9] -0.023 | [10] 0.008 | [11] -0.004 | rosiglitazone 0.007 | [12] -0.073 | [13] -0.037

PSMD14 (UniProt O00487)
inactive: [1] 0.061 | [2] 0.011 | [3] -0.04 | [4] -0.013 | Nexturastat A -0.037 | vemurafenib -0.038 | [5] -0.021 | [6] 0.031 | givinostat -0.06 | barasertib -0.037 | [7] 0.078 | volasertib 0.149 | [8] -0.009 | epoxomicin -0.295 | [9] 0.007 | [10] 0.032 | [11] 0.005 | rosiglitazone 0.016 | [12] 0.049 | [13] 0.042

PSAP isoform 3 (UniProt P07602)
inactive: [1] 0.012 | [2] -0.012 | [3] 0.191 | [4] 0.032 | Nexturastat A -0.071 | vemurafenib 0.013 | [5] -0.134 | [6] -0.006 | givinostat -0.076 | barasertib 0.024 | [7] -0.043 | volasertib -0.041 | [8] -0.037 | epoxomicin 0.069 | [9] 0.012 | [10] 0.005 | [11] -0.027 | rosiglitazone 0.037 | [12] 0.019 | [13] 0.012

PTK7 isoform 6 (UniProt Q13308)
inactive: [1] -0.086 | [2] -0.081 | [3] -0.064 | [4] -0.058 | Nexturastat A -0.046 | vemurafenib 0.059 | [5] -0.091 | [6] -0.01 | givinostat 0.048 | barasertib -0.002 | [7] -0.014 | volasertib 0.022 | [8] 0.022 | epoxomicin -0.159 | [9] -0.016 | [10] 0.099 | [11] -0.038 | rosiglitazone 0.075 | [12] 0.071 | [13] 0.047

QPRT (UniProt Q15274)
inactive: [1] -0.031 | [2] -0.017 | [3] 0.051 | [4] 0.005 | Nexturastat A -0.004 | vemurafenib -0.06 | [5] 0.007 | [6] -0.061 | givinostat -0.036 | barasertib 0.003 | [7] -0.009 | volasertib 0.067 | [8] -0.004 | epoxomicin -0.006 | [9] -0.022 | [10] 0.031 | [11] -0.02 | rosiglitazone -0.024 | [12] -0.024 | [13] -0.018

PUS7 isoform 2 (UniProt Q96PZ0)
inactive: [1] 0.038 | [2] -0.011 | [3] -0.031 | [4] -0.055 | Nexturastat A 0.052 | vemurafenib -0.01 | [5] -0.015 | [6] -0.002 | givinostat -0.046 | barasertib -0.001 | [7] 0.045 | volasertib 0.017 | [8] 0.053 | epoxomicin 0.012 | [9] 0.007 | [10] 0.014 | [11] -0.011 | rosiglitazone -0.005 | [12] 0.012 | [13] -0.07

3 neighbouring entries from above:
PYCARD (UniProt Q9ULZ3)
inactive: [1] -0.006 | [2] 0.069 | [3] 0.017 | [4] 0.09 | Nexturastat A -0.096 | vemurafenib 0.087 | [5] 0.036 | [6] -0.07 | givinostat -0.041 | barasertib 0.063 | [7] -0.014 | volasertib -0.081 | [8] -0.008 | epoxomicin 0.033 | [9] -0.023 | [10] 0.008 | [11] -0.004 | rosiglitazone 0.007 | [12] -0.073 | [13] -0.037

PSMD14 (UniProt O00487)
inactive: [1] 0.061 | [2] 0.011 | [3] -0.04 | [4] -0.013 | Nexturastat A -0.037 | vemurafenib -0.038 | [5] -0.021 | [6] 0.031 | givinostat -0.06 | barasertib -0.037 | [7] 0.078 | volasertib 0.149 | [8] -0.009 | epoxomicin -0.295 | [9] 0.007 | [10] 0.032 | [11] 0.005 | rosiglitazone 0.016 | [12] 0.049 | [13] 0.042

PSAP isoform 3 (UniProt P07602)
inactive: [1] 0.012 | [2] -0.012 | [3] 0.191 | [4] 0.032 | Nexturastat A -0.071 | vemurafenib 0.013 | [5] -0.134 | [6] -0.006 | givinostat -0.076 | barasertib 0.024 | [7] -0.043 | volasertib -0.041 | [8] -0.037 | epoxomicin 0.069 | [9] 0.012 | [10] 0.005 | [11] -0.027 | rosiglitazone 0.037 | [12] 0.019 | [13] 0.012

(further entries)

PTCD3 (UniProt Q96EY7)
inactive: [1] 0.065 | [2] 0.006 | [3] 0.041 | [4] 0.001 | Nexturastat A 0.164 | vemurafenib 0.08 | [5] 0.09 | [6] 0.042 | givinostat 0.001 | barasertib -0.051 | [7] -0.024 | volasertib 0.051 | [8] 0.102 | epoxomicin 0.055 | [9] -0.029 | [10] -0.014 | [11] -0.019 | rosiglitazone 0.012 | [12] 0.045 | [13] 0.08

PSMB3 (UniProt P49720)
inactive: [1] 0.02 | [2] 0.015 | [3] -0.058 | [4] -0.012 | Nexturastat A 0.043 | vemurafenib -0.032 | [5] -0.036 | [6] -0.015 | givinostat -0.028 | barasertib -0.044 | [7] 0.08 | volasertib 0.142 | [8] -0.052 | epoxomicin -0.134 | [9] 0.022 | [10] 0.034 | [11] -0.041 | rosiglitazone -0.059 | [12] 0.006 | [13] 0.086

PTER (UniProt Q96BW5)
inactive: [1] -0.027 | [2] 0.04 | [3] 0.051 | [4] 0.009 | Nexturastat A -0.032 | vemurafenib -0.001 | [5] -0.007 | [6] -0.041 | givinostat -0.06 | barasertib 0.001 | [7] 0.03 | volasertib 0.052 | [8] -0.047 | epoxomicin 0.028 | [9] 0.016 | [10] 0.006 | [11] -0.018 | rosiglitazone 0.015 | [12] -0.068 | [13] 0

PUS10 (UniProt Q3MIT2)
inactive: [1] -0.049 | [2] 0.035 | [3] -0.077 | [4] 0 | Nexturastat A -0.08 | vemurafenib 0.017 | [5] 0.08 | [6] 0.044 | givinostat 0.034 | barasertib 0.109 | [7] -0.131 | volasertib -0.271 | [8] -0.036 | epoxomicin 0.001 | [9] 0.109 | [10] -0.011 | [11] -0.004 | rosiglitazone -0.001 | [12] -0.118 | [13] -0.045

PSTPIP2 (UniProt Q9H939)
inactive: [1] -0.011 | [2] -0.031 | [3] -0.004 | [4] 0.027 | Nexturastat A 0.096 | vemurafenib -0.019 | [5] 0.047 | [6] 0.05 | givinostat 0.026 | barasertib 0.042 | [7] 0 | volasertib -0.08 | [8] -0.009 | epoxomicin -0.023 | [9] -0.026 | [10] -0.087 | [11] 0.032 | rosiglitazone -0.011 | [12] -0.024 | [13] 0.108

PSMB1 (UniProt P20618)
inactive: [1] -0.04 | [2] 0.005 | [3] -0.007 | [4] -0.014 | Nexturastat A 0.011 | vemurafenib -0.005 | [5] -0.031 | [6] 0.008 | givinostat -0.041 | barasertib -0.046 | [7] 0.037 | volasertib 0.112 | [8] -0.024 | epoxomicin -0.178 | [9] 0.05 | [10] -0.075 | [11] 0.001 | rosiglitazone -0.052 | [12] -0.016 | [13] 0.153

PYM1 (UniProt Q9BRP8)
inactive: [1] -0.067 | [2] 0 | [3] -0.023 | [4] -0.031 | Nexturastat A 0.144 | vemurafenib -0.082 | [5] -0.119 | [6] 0.015 | givinostat -0.016 | barasertib -0.066 | [7] 0.158 | volasertib 0.258 | [8] -0.044 | epoxomicin -0.128 | [9] -0.047 | [10] 0.136 | [11] -0.076 | rosiglitazone -0.011 | [12] 0.075 | [13] 0.123

PSMA8 (UniProt Q8TAA3)
inactive: [1] -0.019 | [2] 0.021 | [3] 0.012 | [4] -0.026 | Nexturastat A 0.009 | vemurafenib -0.064 | [5] 0.002 | [6] 0.008 | givinostat -0.02 | barasertib -0.068 | [7] 0.074 | volasertib 0.089 | [8] 0 | epoxomicin -0.187 | [9] 0.034 | [10] 0.038 | [11] 0.022 | rosiglitazone -0.013 | [12] 0.001 | [13] 0.024

PTPRC (UniProt P08575)
inactive: [1] 0.008 | [2] -0.004 | [3] 0.034 | [4] 0 | Nexturastat A -0.072 | vemurafenib -0.006 | [5] -0.015 | [6] -0.01 | givinostat -0.027 | barasertib 0.018 | [7] 0.082 | volasertib 0.023 | [8] 0 | epoxomicin 0.036 | [9] -0.011 | [10] -0.017 | [11] -0.019 | rosiglitazone -0.001 | [12] -0.014 | [13] 0.178
